Here are results for twelve molecules from patent US20160376247A1, “NOVEL TEMPERATURE-SENSITIVE FLUORESCENT COMPOUND AND APPLICATION THEREOF” (SHANGHAI INSTITUTES FOR BIOLOGICAL SCIENCES, CHINESE …, priority 2013, published 2016).

One data set concerns live cells. Put plainly: Intracellular distribution of dye and calibration dye in stained live cells. In kind it is cell-based. The settings on record: temperature-sensitive dye and its calibration dye.
The test system of a further data set is COS7 cells. Put plainly: Confocal imaging of COS7 cells co-stained with dye and Rh800 (mitochondrial distribution). It is filed as cell-based. Conditions: co-staining with Rh800.
The subject of another data set is mitochondria. Conditions: known dyes; cited from earlier work.
Data set [1] deals with HepG2 cells. Put plainly: Perfusion (elution) of stained HepG2 cells, Stokes luminescence intensity vs perfusion time. It is filed as cell-based.
For data set [2], the system named is HepG2 cells. Description: Staining of living HepG2 cells, Stokes and anti-Stokes luminescence imaging (entry of dye into the cell). In kind it is cell-based. Conditions: for entry of dye into the cell / binding to cell surface: living cells stained with dye, conclusion from staining and elution.

Some entries repeat one wording, which the source may state once for all of them.

As for `CCCCCCCCCCCCCCCCOC(=O)c1ccccc1-c1c2ccc(=N)cc-2oc2cc(N)ccc12` [Rh110-C16], the intracellular distribution entry in the data set with live cells was “distributes on cell membrane”.

Take `CCN(CC)c1ccc2c(-c3ccccc3C(=O)OCOC(C)=O)c3ccc(=[N+](CC)CC)cc-3oc2c1` [RhBAM]: in the data set on live cells, the intracellular distribution entry is “in cytoplasm”.

Consider `CCN(CC)c1ccc2c(-c3ccccc3C(=O)OC)c3ccc(N(CC)CC)cc3[o+]c2c1.[Cl-]` [RhBME], for which the distribution in cell entry with COS7 cells was “distributes on mitochondria”.

Regarding `N#CC1=c2cc3c4c(c2Oc2c1cc1c5c2CCCN5CCC1)CCC[N+]=4CCC3` [Rh800], the distribution in cell result with COS7 cells is “distributes on mitochondria”.

As to `CC(=O)OCOC(=O)c1ccccc1-c1c2ccc(=N)cc-2oc2cc(N)ccc12` [Rh110AM], in the data set with live cells, the intracellular distribution entry is reported as “in cytoplasm”.

With `CCN(CC)c1ccc2c(-c3ccccc3C(=O)OCc3ccc(C(=O)Nc4cc5cccnc5c5ncccc45)cc3)c3ccc(=[N+](CC)CC)cc-3oc2c1` [RPA, Rhodamine B-[(1,10-phenanthrolin-5-yl)aminocarbonyl]benzyl ester], in the data set on mitochondria, the subcellular localization result is on record as “localized in mitochondria”.

Take `CCCCCCCCCCCCCCCCOC(=O)c1ccccc1-c1c2ccc(=[N+](CC)CC)cc-2oc2cc(N(CC)CC)ccc12` [RhB-C16]: the intracellular distribution entry with live cells is given as “distributes on cell membrane”.

As for `CC(=O)OCOC(=O)c1ccccc1C1=c2cc3c4c(c2Oc2c1cc1c5c2CCCN5CCC1)CCC[N+]=4CCC3` [Rh101AM], the “fluorescent maintained in cells after perfusion” value in the data set on HepG2 cells [1] (HepG2 cells stained 200 nM 60 mins, perfusion solution containing or not containing probenecid for 10 mins, normalized to 0 min) is on record as not below 50%. For the same molecule, the “Stokes luminescence of the cells after perfusion” value was “still certain Stokes luminescence” in the data set on HepG2 cells [1] (perfusion solution containing probenecid over 30 mins) and “almost disappeared” in the data set with HepG2 cells [1] (perfusion solution not containing probenecid for 25 mins). Also, the “entry of dye into the cell / binding to cell surface” value (from here on “entry of dye into the cell / binding”) in the data set with HepG2 cells [2] is “significantly and intracellularly enriched and is difficult to be eluted”.

For the molecule `CCN(CC)c1ccc2c(-c3ccccc3C(=O)O)c3ccc(=[N+](CC)CC)cc-3oc2c1` [RhB, Rhodamine B], the “entry of dye into the cell / binding” value with HepG2 cells [2] is “difficult for RhB to enter a cell”.

As to `O=C(O)c1ccccc1C1=c2cc3c4c(c2Oc2c1cc1c5c2CCCN5CCC1)CCC[N+]=4CCC3` [Rh101, rhodamine 101], the “Stokes luminescence of the cells after perfusion” value in the data set with HepG2 cells [1] (HepG2 cells stained 200 nM 60 mins, perfusion solution containing probenecid (2.5 mM, Tyrode) for 10 mins) is “almost disappeared”. Besides, the “anti-Stokes luminescence of stained cells compared with Rh101AM staining (FIG. 4(b) vs FIG. 3(b))” value in the data set with HepG2 cells [2] (HepG2, 200 nM, 60 mins, excited 635 nm, collected 573-613 nm, identical imaging and temperature conditions) is “much weaker”. The “entry of dye into the cell / binding” value with HepG2 cells [2] is reported as “merely adheres outside the cell, instead of entering into the cell”.

For “tetramethylrhodamine methyl ester [TMRM]”, the subcellular localization entry with mitochondria is recorded as “localized in mitochondria”.

In the case of `COC(=O)c1ccccc1C1=c2cc3c4c(c2Oc2c1cc1c5c2CCCN5CCC1)CCC[N+]=4CCC3.[Cl-]` [Rh101ME], the distribution in cell result in the data set on COS7 cells is reported as “distributes on mitochondria”.
